Data taken from ChEMBL document CHEMBL3988442, “University of Dundee, Small-Polar-MMV Screening Library” (2021).

Sequences of proteins named here, by UniProt entry; tags and fusion partners are left off.
UniProt E9BF75, entry or part of it: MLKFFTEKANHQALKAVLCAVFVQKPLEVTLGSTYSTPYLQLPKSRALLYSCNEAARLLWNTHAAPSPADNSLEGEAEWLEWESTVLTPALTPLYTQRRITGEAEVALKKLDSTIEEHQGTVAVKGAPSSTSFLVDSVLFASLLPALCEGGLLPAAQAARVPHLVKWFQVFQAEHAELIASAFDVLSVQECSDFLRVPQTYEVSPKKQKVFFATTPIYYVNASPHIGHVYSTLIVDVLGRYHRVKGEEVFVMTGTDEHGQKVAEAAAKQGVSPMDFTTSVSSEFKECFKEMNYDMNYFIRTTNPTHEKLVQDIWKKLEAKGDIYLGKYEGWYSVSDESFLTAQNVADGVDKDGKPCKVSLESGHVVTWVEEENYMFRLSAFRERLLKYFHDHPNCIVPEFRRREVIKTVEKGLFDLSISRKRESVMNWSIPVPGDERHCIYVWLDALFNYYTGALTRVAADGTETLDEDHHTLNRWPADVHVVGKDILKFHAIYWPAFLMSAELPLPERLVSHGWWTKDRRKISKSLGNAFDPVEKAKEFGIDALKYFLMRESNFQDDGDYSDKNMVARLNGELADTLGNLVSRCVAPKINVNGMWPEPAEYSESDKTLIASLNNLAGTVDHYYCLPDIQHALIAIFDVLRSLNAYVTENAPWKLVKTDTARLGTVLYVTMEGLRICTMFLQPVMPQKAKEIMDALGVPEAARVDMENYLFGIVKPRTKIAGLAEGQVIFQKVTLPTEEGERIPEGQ

LdMetRS: 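Methionyl-tRNA synthetase (putative), Leishmania donovani (UniProt E9BF75). Primary screen of methionyl-tRNA synthetase; the read-out is not stated. The test concentration is not given. Values are per cent inhibition. Size under these conditions: about 68,000 compounds, about 24 of them at 50% or above in at least one test.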
Mtb heat-shock: 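Assay on Mycobacterium tuberculosis, filed only as a heat shock assay from Cornell; the read-out is not stated. The concentration is filed as 10 mM, unlikely as a test dose, so the dose is not known. Direction is inferred from retests: higher values go with stronger inhibition. About 69,000 compounds were tested under these conditions; 1.4% (about 930) showed 50% or more at least once.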

Results are percentages, as filed. How 0% and 100% were set is not recorded. Most values in the screen are low, and negative values occur. This is an unselected part of the compounds tested. A dash means the value is not listed here; it may have been measured.

| # | SMILES | LdMetRS | Mtb heat-shock |
|---|---|---|---|
| 1 | `O=S(=O)(c1ccccc1)N1CCC2(CCCN2Cc2cccc(Cl)c2)C1` (centres unmarked) | 20.29 | - |
| 2 | `Cc1cnn(CCNCc2c(C)nn(Cc3ccccc3)c2C)c1` | 9.317 | -27.3 |
| 3 | `O=C(NCc1ccc2c(c1)OCO2)c1ccc(N2CCCCC2)nn1` | 12.36 | -14.62 |
| 4 | `COc1ccc(Cl)cc1-c1cc(NC(=O)C2CNC(=O)N2)[nH]n1` (centres unmarked) | 17.07 | 8.687 |
| 5 | `CC(C)NC(=O)N1CCN(CC2CC2)c2ncccc2C1` | 14.29 | - |
| 6 | `Cc1cnn(C2CN(Cc3nc(-c4cccnc4)no3)C2)c1` | 14.53 | -0.7344 |
| 7 | `CC(C)CC(=O)N1CCC2(CC1)OCCO2` | 7.311 | 8.828 |
| 8 | `Cc1ccccc1C1(CN)CCOCC1` | 11 | -7.844 |
| 9 | `Cc1cnc(-c2nc(C3CCCN(Cc4ccccc4C)C3)no2)cn1` (centres unmarked) | 6.854 | - |
| 10 | `Cc1ccc(N2CCCC3(COCCN(c4nccs4)C3)C2)nn1.O=C(O)C(F)(F)F.O=C(O)C(F)(F)F` (centres unmarked) | - | 7.886 |
| 11 | `CCn1ccnc1CN1CCN(C(C)C(=O)N2CCCCCC2)CC1` (centres unmarked) | 10.34 | 2.653 |
| 12 | `CN(CCO)CC1COCCN1C(=O)C1(c2cccs2)CCCC1.O=CO` (centres unmarked) | - | -6.871 |
| 13 | `CC(C)c1cnc(CN2CCCC(c3cc(C(N)=O)[nH]n3)C2)o1` (centres unmarked) | 21.11 | 8.087 |
| 14 | `CN(Cc1ccco1)[C@@H]1CN(Cc2cccnc2)[C@@H]2CCCO[C@H]12` | 18.13 | - |
| 15 | `O=S(=O)(Cc1ccccc1CN1CC[C@H](CO)[C@H](O)C1)c1ccccc1` | 17.01 | 14.96 |
| 16 | `CC(=O)N1N=C(COc2ccc(C)cc2)OC1c1ccc(N(C)C)cc1` (centres unmarked) | 10.14 | 19.31 |
| 17 | `Cc1nnn2c1COCC(CNC(=O)c1ccc3[nH]ccc3c1)C2` (centres unmarked) | 2.362 | 2.664 |
| 18 | `Cc1cccc(CN(Cc2ccccn2)Cc2ncc(C(C)(C)C)o2)c1` | 21.56 | 77.52 |
| 19 | `CC(C)(C)c1cn2nc(N3CCC[C@@H]3CO)sc2n1` | 6.748 | 22.55 |
| 20 | `COCC1CC2(CCN(Cc3ccc(OC)cc3)CC2)CN1C(C)C` (centres unmarked) | 10.73 | - |
| 21 | `O=C(NCc1cc[nH]n1)NCC(c1ccc(F)cc1)N1CCOCC1` (centres unmarked) | 7.362 | 35.07 |
| 22 | `O=C1N(Cc2cccc(F)c2)CCC12CCCN(c1ncc(F)cn1)C2` (centres unmarked) | 11.48 | -3.271 |
| 23 | `O=C(Cn1ncc(N2CCCC2)cc1=O)Nc1ccc2nccnc2c1` | 15 | 10.79 |
| 24 | `CCn1cc(NC(=O)NCC2(N3CCOCC3)CCSC2)cn1` (centres unmarked) | 6.159 | 3.214 |
| 25 | `CCCN1CCC(NCc2cccc(CN3CCOC(C)C3)c2)CC1` (centres unmarked) | 2.091 | -53.14 |
| 26 | `CCOc1ccc(Cl)cc1C(C(=O)O)N1CCCC1` (centres unmarked) | 7.843 | 4.392 |
| 27 | `Cc1cc(NC(=O)NC(C)CN2CCN(c3ccccc3)CC2)on1` (centres unmarked) | 7.609 | -48.17 |
| 28 | `OCCN1CCN(Cc2coc(-c3ccccc3)n2)CC1` | 7.386 | 1.092 |
| 29 | `COCCN1CCCC2(CCN(c3cccc(C(F)(F)F)n3)C2)C1=O` (centres unmarked) | 4.735 | 1.084 |
| 30 | `Cn1ccnc1CN1CCCCC1c1nc(-c2ccccc2)no1` (centres unmarked) | 8.447 | 51.73 |
| 31 | `Nc1nccnc1C1CN(C(=O)c2cnccn2)CCO1` (centres unmarked) | 20.58 | -11.41 |
| 32 | `Cc1cc(CNc2ccc(C(=O)N3CCc4ccccc43)cn2)on1` | 12.41 | 28.6 |
| 33 | `NC(=O)N1CCCC(C(=O)NCCOc2ccc(F)cc2F)C1` (centres unmarked) | 6.183 | -23.9 |
| 34 | `CN(C)[C@@H]1CCN(c2ncccn2)[C@H]1Cc1ccncc1` | 7.874 | - |
| 35 | `CCOCCC(=O)N1Cc2cnc(-c3ccccc3)nc2C1` | 14.29 | -0.01205 |
| 36 | `Cc1ccccc1CN(Cc1ccccn1)C(=O)CN(C)C(C)C` | 11.46 | 8.075 |
| 37 | `O=C1CC(c2ncc(-c3ccc4c(c3)OCCO4)[nH]2)CN1C1CC1` (centres unmarked) | 4.326 | 14.43 |
| 38 | `COc1ccc(-c2cnc(N)nc2C2CCCNC2)cc1.Cl` (centres unmarked) | - | 9.716 |
| 39 | `COc1cccc(-c2noc(C3CCN(CC4CCCCC4)C3)n2)c1.Cl` (centres unmarked) | - | -30.83 |
| 40 | `CN(CC(=O)Nc1nc2c(s1)CCC2)C(=O)c1cccs1` | 14.34 | -8.318 |
| 41 | `COc1cccc(N2CC3(CCN(c4ccc(C)nn4)C3)CC2=O)c1` (centres unmarked) | 12.77 | 23.39 |
| 42 | `COc1ccccc1OC1CCN(c2nc(N)nc3[nH]cnc23)CC1` | - | -12.94 |
| 43 | `CCNC(=O)N(C)C1CCN(Cc2ncc(C)c(OC)c2C)CC1` | 19.89 | 20.97 |
| 44 | `CC(c1ccccc1)N(C)C(=O)CN1CCCc2cccc(F)c21` (centres unmarked) | 13.77 | 2.898 |
| 45 | `O=C(CCNC(=O)c1ccoc1)NCc1ccccc1F` | 13.89 | 13.55 |
| 46 | `O=C(CCNc1ncccn1)N1CCN(c2nccs2)CC1` | 12.58 | -9.158 |
| 47 | `Cc1cnc(N2CC3(CCN(C(=O)c4cccnc4)C3)C2)nc1` | 11.11 | - |
| 48 | `O=C(O)C(F)(F)F.[H][C@@]12CCN(c3cnccn3)C[C@]1([H])CN(C(=O)CC(C)C)C2` | - | -0.6153 |
| 49 | `O=C(COc1cccc(F)c1)N1C[C@H](CO)C[C@H](CN2CCCC2)C1` | 0.5222 | -8.5 |
| 50 | `COC1(CNC(=O)NCCOc2ccccc2)CCSC1` (centres unmarked) | 13.51 | -44.79 |
| 51 | `Cc1c(CS(C)(=O)=O)cccc1NC(=O)CC1CCCC1` | 20.92 | 1.348 |
| 52 | `Cc1c(C(=O)N2CC(C)(C)C2(C)C)nnn1-c1cccc2cnccc12` | 14.97 | -24.68 |
| 53 | `CN(C)CCn1c2c(ccc1=O)CC(NCc1cccnc1)CC2` (centres unmarked) | 12.68 | - |
| 54 | `COc1cc(CN(C)C(=O)NCc2ccccn2)ccc1SC` | - | -5.844 |
| 55 | `O=C(O)C(F)(F)F.O=C(c1ccc2ccccc2n1)N1CCC2(CCN2c2ncccn2)C1` (centres unmarked) | - | -9.605 |
| 56 | `[H][C@@]12CS(=O)(=O)C[C@]1([H])N(Cc1nc3ccccc3[nH]1)CCN2CC(C)C` | - | 3.378 |
| 57 | `CC(C)(C)n1ncc(C(=O)NCCCC(N)=O)c1C(F)(F)F` | 12.63 | 4.428 |
| 58 | `O=C(O)C(F)(F)F.[H][C@@]12CN(CC)C[C@]1(C(=O)N(C)C)CCC21CCN(S(C)(=O)=O)CC1` | - | 4.043 |

Once more, the final 6:

{"smiles": "CN(C)CCn1c2c(ccc1=O)CC(NCc1cccnc1)CC2", "stereo": "centres unmarked", "LdMetRS": 12.68}
{"smiles": "COc1cc(CN(C)C(=O)NCc2ccccn2)ccc1SC", "Mtb heat-shock": -5.844}
{"smiles": "O=C(O)C(F)(F)F.O=C(c1ccc2ccccc2n1)N1CCC2(CCN2c2ncccn2)C1", "stereo": "centres unmarked", "Mtb heat-shock": -9.605}
{"smiles": "[H][C@@]12CS(=O)(=O)C[C@]1([H])N(Cc1nc3ccccc3[nH]1)CCN2CC(C)C", "Mtb heat-shock": 3.378}
{"smiles": "CC(C)(C)n1ncc(C(=O)NCCCC(N)=O)c1C(F)(F)F", "LdMetRS": 12.63, "Mtb heat-shock": 4.428}
{"smiles": "O=C(O)C(F)(F)F.[H][C@@]12CN(CC)C[C@]1(C(=O)N(C)C)CCC21CCN(S(C)(=O)=O)CC1", "Mtb heat-shock": 4.043}